Reference: article PMC10572468
These are yes or no findings as the source states them, for the method shown. In cells and extracts the contact can be indirect.

Chains of the proteins cited; added tags and fusions are not shown.
UniProt Q9UIH9: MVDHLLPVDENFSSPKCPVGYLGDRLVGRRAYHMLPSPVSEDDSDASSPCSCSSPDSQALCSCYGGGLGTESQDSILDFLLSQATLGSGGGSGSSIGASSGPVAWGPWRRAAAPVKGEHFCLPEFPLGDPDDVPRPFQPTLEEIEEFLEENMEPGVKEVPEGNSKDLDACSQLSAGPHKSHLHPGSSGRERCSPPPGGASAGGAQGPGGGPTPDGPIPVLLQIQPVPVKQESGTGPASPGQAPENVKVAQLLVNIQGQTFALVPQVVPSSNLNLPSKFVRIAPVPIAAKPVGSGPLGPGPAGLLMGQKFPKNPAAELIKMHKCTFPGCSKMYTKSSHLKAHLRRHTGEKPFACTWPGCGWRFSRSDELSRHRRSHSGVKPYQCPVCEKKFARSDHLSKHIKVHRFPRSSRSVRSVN

Target: T1, nuclear factor erythroid 2-related factor 2 (UniProt Q16236)
T1 sequence: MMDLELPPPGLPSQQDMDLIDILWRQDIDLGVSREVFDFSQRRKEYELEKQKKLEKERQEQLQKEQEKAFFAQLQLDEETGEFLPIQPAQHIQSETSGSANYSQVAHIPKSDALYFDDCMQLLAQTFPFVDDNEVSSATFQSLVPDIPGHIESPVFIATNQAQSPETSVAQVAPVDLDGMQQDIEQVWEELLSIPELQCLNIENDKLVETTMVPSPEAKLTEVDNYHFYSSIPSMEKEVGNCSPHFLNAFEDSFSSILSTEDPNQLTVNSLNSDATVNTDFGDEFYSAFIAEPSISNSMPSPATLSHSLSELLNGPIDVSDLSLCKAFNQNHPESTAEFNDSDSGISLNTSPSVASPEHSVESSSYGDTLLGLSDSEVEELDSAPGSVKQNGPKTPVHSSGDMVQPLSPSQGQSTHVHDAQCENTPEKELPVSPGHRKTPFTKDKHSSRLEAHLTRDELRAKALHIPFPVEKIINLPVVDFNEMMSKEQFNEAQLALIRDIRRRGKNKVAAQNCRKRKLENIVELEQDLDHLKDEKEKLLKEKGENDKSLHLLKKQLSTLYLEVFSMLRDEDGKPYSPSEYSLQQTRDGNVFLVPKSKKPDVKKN
Assay: co-IP; cells lysed in RIPA buffer with 10 mmol/L N-ethylmaleimide and protease and phosphatase inhibitors; NRF2 antibody and protein A beads, 4 °C, 1 h; Western blot with KLF15 antibody

binding: no binding
Substance: Krüppel-like factor 15 (from UniProt Q9UIH9 1-416)
